This is one part of the list.
Assays:
Experiment in all cases: log2 fold change, soluble protein after heating vs DMSO (PISA); higher = thermal stabilisation; K562 cells, 10 uM, 30 min; active = over 0.2 and 3.5 SD of the protein, either way, in both replicates (recomputed)
[1] = compound: COC1=CC=C(C=C1)CN2C=CC3=C2C=C(C=C3)C(=O)NO
How it was run: (§1)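 Soluble protein was quantified by TMTpro 16plex LC-MS/MS after channel sums were equalised. It was obtained as the supernatant after 21,000xg for 90 min from pooled aliquots of K562 cells (2×10^6 cells/mL, 10 μM compound, 30 min) heated for 3 min across 48°C-58°C and extracted in PBS with 0.5% NP-40 at 4°C. Thermal stability values are relative to control samples and come from duplicates. They are given as log2 fold changes.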

Chains of the proteins cited; added tags and fusions are not shown. Lines headed by an entry give the natural chain unless they say otherwise; changes in a name come on top.
UniProt Q9BRT2: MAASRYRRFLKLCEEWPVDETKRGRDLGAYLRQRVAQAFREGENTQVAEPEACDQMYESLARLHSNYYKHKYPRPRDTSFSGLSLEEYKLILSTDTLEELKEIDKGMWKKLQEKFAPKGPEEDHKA
UniProt Q9P0L0: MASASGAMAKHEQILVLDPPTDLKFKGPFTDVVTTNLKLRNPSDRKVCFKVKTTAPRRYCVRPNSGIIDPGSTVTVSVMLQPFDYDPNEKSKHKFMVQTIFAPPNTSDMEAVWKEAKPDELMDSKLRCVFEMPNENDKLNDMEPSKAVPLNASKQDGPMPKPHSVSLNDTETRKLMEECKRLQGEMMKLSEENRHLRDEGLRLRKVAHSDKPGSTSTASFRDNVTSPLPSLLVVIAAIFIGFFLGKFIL
UniProt P31930: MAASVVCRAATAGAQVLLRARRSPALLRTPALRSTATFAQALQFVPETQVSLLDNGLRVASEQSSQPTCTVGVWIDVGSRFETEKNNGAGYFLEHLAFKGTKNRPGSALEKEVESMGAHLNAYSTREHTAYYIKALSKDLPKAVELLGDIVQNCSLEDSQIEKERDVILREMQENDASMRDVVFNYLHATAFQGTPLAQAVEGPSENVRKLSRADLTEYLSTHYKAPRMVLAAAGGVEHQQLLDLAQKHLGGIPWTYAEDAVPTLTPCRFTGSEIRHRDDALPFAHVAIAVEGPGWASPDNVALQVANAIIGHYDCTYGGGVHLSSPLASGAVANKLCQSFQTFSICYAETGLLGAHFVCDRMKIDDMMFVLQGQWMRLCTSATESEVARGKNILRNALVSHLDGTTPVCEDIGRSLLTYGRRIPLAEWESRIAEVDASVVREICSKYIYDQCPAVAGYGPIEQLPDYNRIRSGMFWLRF
UniProt Q9UMX0, whole entry, looked up: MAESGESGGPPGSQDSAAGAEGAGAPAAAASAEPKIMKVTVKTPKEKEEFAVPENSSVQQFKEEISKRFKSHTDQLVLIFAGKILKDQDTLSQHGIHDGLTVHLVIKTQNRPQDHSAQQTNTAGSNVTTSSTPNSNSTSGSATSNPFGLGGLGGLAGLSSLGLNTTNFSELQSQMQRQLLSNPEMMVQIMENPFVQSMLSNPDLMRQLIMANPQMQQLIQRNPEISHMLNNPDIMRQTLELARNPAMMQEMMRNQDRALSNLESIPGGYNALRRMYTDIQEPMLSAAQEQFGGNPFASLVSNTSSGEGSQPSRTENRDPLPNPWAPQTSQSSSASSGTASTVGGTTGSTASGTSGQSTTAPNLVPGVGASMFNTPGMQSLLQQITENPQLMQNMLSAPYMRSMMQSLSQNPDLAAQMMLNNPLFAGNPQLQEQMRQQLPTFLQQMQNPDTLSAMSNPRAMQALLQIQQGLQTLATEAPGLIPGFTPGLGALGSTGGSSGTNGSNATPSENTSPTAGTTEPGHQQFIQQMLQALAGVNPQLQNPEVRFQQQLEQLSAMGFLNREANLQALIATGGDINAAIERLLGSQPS
UniProt Q14694, whole entry, looked up: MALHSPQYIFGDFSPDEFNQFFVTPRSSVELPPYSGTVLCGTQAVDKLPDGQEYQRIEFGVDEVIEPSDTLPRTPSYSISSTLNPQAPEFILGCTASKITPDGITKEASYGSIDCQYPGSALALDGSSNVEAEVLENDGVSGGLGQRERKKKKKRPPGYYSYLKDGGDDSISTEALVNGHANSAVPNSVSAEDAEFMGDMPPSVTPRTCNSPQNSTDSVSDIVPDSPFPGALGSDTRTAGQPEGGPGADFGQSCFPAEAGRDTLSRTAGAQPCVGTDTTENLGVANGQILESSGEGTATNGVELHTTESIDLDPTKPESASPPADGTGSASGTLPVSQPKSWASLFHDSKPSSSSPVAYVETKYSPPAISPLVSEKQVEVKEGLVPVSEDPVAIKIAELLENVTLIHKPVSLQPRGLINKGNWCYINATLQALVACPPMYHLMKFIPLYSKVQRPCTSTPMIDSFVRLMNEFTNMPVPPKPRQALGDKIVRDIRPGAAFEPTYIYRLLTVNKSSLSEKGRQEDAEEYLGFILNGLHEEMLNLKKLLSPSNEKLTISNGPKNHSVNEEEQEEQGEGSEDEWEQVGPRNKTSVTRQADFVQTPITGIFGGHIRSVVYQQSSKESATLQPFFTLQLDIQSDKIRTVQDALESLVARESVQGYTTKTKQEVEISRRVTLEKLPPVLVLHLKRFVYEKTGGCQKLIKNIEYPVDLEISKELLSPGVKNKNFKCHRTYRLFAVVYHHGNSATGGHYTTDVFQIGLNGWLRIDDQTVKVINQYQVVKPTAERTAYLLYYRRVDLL
UniProt Q8TED0: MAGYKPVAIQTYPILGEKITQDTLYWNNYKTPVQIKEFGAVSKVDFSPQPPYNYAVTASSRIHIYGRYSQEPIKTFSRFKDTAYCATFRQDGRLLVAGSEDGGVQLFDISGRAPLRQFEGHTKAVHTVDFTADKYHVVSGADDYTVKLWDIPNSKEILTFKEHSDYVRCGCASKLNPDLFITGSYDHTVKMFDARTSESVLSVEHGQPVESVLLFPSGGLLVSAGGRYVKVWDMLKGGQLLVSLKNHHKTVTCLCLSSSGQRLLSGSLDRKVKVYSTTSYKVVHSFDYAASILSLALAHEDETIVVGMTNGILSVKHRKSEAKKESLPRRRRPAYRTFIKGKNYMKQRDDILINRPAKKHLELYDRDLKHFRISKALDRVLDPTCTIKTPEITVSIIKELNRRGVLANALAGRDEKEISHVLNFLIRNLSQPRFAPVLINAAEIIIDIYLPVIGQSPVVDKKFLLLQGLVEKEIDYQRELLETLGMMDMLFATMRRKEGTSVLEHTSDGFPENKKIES
UniProt P14927: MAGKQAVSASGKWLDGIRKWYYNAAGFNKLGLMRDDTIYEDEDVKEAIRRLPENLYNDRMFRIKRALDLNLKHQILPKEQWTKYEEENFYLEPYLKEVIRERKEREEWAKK
UniProt P55072, whole entry, looked up: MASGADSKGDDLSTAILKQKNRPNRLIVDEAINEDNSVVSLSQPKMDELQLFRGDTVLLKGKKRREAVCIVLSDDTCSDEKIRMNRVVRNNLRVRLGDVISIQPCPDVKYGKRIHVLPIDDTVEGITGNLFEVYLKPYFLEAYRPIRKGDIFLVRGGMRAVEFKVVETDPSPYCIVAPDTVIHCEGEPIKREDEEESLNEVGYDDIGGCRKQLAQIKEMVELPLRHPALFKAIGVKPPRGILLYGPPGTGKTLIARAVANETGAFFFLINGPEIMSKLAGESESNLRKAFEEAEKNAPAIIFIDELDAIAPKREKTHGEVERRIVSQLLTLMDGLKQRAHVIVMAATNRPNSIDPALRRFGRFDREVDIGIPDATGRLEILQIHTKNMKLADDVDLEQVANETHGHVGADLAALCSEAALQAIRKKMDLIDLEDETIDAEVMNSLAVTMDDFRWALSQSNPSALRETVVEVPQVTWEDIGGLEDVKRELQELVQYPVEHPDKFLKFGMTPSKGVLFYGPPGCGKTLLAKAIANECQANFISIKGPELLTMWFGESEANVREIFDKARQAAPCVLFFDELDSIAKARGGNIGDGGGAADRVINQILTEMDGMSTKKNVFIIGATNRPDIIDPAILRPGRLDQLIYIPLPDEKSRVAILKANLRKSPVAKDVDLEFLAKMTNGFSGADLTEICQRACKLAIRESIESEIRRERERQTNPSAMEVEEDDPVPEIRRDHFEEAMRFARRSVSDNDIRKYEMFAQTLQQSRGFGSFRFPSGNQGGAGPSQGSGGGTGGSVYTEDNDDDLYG
UniProt Q9NZ43: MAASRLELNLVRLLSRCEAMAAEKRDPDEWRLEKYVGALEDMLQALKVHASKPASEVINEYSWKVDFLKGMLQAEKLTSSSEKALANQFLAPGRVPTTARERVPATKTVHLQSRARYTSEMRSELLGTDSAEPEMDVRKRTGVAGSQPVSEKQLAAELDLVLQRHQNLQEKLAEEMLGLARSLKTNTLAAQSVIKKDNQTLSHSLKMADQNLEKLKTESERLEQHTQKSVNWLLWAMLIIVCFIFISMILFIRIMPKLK
UniProt P61758, whole entry, looked up: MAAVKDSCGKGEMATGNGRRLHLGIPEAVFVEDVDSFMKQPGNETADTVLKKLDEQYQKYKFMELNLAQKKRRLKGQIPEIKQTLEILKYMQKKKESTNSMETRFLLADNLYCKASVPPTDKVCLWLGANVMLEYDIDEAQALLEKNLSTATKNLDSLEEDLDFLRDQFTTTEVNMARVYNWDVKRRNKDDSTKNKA
UniProt O95292, whole entry, looked up: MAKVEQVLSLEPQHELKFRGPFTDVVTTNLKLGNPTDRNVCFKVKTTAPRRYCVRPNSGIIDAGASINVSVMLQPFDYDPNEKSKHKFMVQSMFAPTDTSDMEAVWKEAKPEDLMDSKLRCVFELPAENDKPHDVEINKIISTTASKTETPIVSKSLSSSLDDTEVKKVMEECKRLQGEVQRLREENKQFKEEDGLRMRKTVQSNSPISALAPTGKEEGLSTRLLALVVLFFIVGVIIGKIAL
UniProt P50552: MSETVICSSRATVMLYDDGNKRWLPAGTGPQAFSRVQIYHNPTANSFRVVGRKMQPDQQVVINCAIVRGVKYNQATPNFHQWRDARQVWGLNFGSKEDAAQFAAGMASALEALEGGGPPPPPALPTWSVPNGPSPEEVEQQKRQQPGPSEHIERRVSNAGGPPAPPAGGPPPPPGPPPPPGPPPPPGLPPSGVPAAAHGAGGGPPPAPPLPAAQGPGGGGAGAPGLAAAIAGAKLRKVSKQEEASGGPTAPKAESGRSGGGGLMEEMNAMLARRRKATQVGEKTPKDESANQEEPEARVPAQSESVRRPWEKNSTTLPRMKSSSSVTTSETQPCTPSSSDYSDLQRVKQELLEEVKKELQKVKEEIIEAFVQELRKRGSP
UniProt P07919: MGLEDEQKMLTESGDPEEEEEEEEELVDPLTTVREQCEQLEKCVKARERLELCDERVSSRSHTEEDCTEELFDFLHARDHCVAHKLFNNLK
UniProt O94888: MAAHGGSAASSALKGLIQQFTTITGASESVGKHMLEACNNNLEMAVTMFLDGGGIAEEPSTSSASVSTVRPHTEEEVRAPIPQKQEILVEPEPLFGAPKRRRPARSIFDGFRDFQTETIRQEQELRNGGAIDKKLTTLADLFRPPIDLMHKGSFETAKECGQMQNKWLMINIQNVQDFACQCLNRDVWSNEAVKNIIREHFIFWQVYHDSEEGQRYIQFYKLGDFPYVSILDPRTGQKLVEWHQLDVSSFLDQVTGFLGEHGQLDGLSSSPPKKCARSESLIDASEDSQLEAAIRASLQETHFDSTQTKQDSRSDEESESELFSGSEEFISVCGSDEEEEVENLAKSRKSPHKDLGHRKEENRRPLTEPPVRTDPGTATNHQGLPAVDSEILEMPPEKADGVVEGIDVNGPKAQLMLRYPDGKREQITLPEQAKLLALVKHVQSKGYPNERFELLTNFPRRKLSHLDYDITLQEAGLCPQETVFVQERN
UniProt Q99536: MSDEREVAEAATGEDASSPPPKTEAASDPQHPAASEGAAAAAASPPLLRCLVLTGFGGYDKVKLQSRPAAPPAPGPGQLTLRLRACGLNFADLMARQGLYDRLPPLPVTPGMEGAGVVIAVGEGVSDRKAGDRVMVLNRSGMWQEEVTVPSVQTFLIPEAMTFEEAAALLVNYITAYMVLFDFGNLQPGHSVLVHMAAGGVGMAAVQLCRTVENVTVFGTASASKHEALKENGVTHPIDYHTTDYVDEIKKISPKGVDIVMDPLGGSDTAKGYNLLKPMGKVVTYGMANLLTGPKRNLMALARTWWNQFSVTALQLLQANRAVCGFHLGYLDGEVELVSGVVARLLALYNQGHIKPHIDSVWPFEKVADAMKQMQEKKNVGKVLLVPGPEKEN

filanesib = compound: CON(C)C(=O)N1N=C(c2cc(F)ccc2F)S[C@@]1(CCCN)c1ccccc1 [filanesib]
How it was run: as §1

zotarolimus = compound: CO[C@H]1C[C@@H]2CC[C@@H](C)[C@@](O)(O2)C(=O)C(=O)N2CCCC[C@H]2C(=O)O[C@H]([C@H](C)C[C@@H]2CC[C@H](n3cnnn3)[C@H](OC)C2)CC(=O)[C@H](C)/C=C(\C)[C@@H](O)[C@@H](OC)C(=O)[C@H](C)C[C@H](C)/C=C/C=C/C=C/1C [zotarolimus]
How it was run: as §1

idasanutlin = compound: COc1cc(C(=O)O)ccc1NC(=O)[C@@H]1N[C@@H](CC(C)(C)C)[C@](C#N)(c2ccc(Cl)cc2F)[C@H]1c1cccc(Cl)c1F [idasanutlin]
How it was run: as §1

alisertib = compound: COc1cc(Nc2ncc3c(n2)-c2ccc(Cl)cc2C(c2c(F)cccc2OC)=NC3)ccc1C(=O)O [alisertib]
How it was run: as §1

[2] = compound: COc1cc2nc(-c3cc(F)ccc3O)nc(N[C@@H]3CNC[C@H]3C(C)(C)O)c2cc1OC
How it was run: as §1

gefitinib = compound: COc1cc2ncnc(Nc3ccc(F)c(Cl)c3)c2cc1OCCCN1CCOCC1 [gefitinib]
How it was run: as §1

[3] = compound: COc1cccc2cc(-c3nc([C@H]4CC[C@H](C(=O)O)CC4)n4ncnc(N)c34)[nH]c12
How it was run: as §1

lapatinib = compound: CS(=O)(=O)CCNCc1ccc(-c2ccc3ncnc(Nc4ccc(OCc5cccc(F)c5)c(Cl)c4)c3c2)o1 [lapatinib]
How it was run: as §1

pictilisib = compound: CS(=O)(=O)N1CCN(Cc2cc3nc(-c4cccc5[nH]ncc45)nc(N4CCOCC4)c3s2)CC1 [pictilisib]
How it was run: as §1

[4] = compound: CS(=O)(=O)c1ccc(-c2cnc(N)c(C(=O)Nc3ccccc3)n2)cc1
How it was run: as §1

crizotinib = compound: C[C@@H](Oc1cc(-c2cnn(C3CCNCC3)c2)cnc1N)c1c(Cl)ccc(F)c1Cl [crizotinib]
How it was run: as §1

[5] = compound: C[C@@H]1COCCN1C2=NC(=NC(=C2)C3(CC3)S(=O)(=O)C)C4=C5C=CNC5=CC=C4
How it was run: as §1

[6] = compound: C[C@H](C1=CC=C(C=C1)C(=O)NC2=C3C=CNC3=NC=C2)N
How it was run: as §1

duvelisib = compound: C[C@H](Nc1ncnc2nc[nH]c12)c1cc2cccc(Cl)c2c(=O)n1-c1ccccc1 [duvelisib]
How it was run: as §1

gandotinib = compound: Cc1cc(Nc2cc(CN3CCOCC3)c3nc(C)c(Cc4ccc(Cl)cc4F)n3n2)n[nH]1 [gandotinib]
How it was run: as §1

tozasertib = compound: Cc1cc(Nc2cc(N3CCN(C)CC3)nc(Sc3ccc(NC(=O)C4CC4)cc3)n2)n[nH]1 [tozasertib]
How it was run: as §1

[7] = compound: Cc1cc(SCc2sc(-c3ccc(C(F)(F)F)cc3)nc2C)ccc1OCC(=O)O
How it was run: as §1

doramapimod = compound: Cc1ccc(-n2nc(C(C)(C)C)cc2NC(=O)Nc2ccc(OCCN3CCOCC3)c3ccccc23)cc1 [doramapimod]
How it was run: as §1

ispinesib = compound: Cc1ccc(C(=O)N(CCCN)[C@@H](c2nc3cc(Cl)ccc3c(=O)n2Cc2ccccc2)C(C)C)cc1 [ispinesib]
How it was run: as §1

Measured: log2 fold change

UQCC2 (UniProt Q9BRT2)
inactive: [1] 0.02 | filanesib -0.067 | zotarolimus 0.011 | idasanutlin 0.031 | alisertib -0.023 | [2] -0.039 | gefitinib -0.012 | [3] -0.006 | lapatinib -0.008 | pictilisib 0.044 | [4] -0.047 | crizotinib -0.016 | [5] 0.05 | [6] -0.064 | duvelisib 0.013 | gandotinib 0.018 | tozasertib 0.06 | [7] 0.037 | doramapimod -0.031 | ispinesib -0.032

VAPA isoform 2 (UniProt Q9P0L0)
inactive: [1] 0.006 | filanesib -0.019 | zotarolimus -0.036 | idasanutlin -0.019 | alisertib -0.034 | [2] 0 | gefitinib 0.046 | [3] 0.021 | lapatinib 0.006 | pictilisib -0.043 | [4] 0.027 | crizotinib 0.037 | [5] -0.062 | [6] -0.014 | duvelisib -0.012 | gandotinib -0.03 | tozasertib 0.01 | [7] -0.024 | doramapimod -0.021 | ispinesib 0.046

UQCRC1 (UniProt P31930)
inactive: [1] -0.013 | filanesib -0.063 | zotarolimus -0.009 | idasanutlin -0.022 | alisertib -0.095 | [2] 0.044 | gefitinib 0.011 | [3] 0.041 | lapatinib -0.017 | pictilisib -0.011 | [4] -0.01 | crizotinib 0.076 | [5] 0.046 | [6] -0.032 | duvelisib 0.011 | gandotinib 0.024 | tozasertib -0.005 | [7] -0.041 | doramapimod -0.01 | ispinesib 0.03

UBQLN1 (UniProt Q9UMX0)
inactive: [1] -0.034 | filanesib -0.01 | zotarolimus -0.035 | idasanutlin 0.014 | alisertib -0.067 | [2] -0.046 | gefitinib 0.005 | [3] 0.081 | lapatinib 0.03 | pictilisib -0.013 | [4] -0.062 | crizotinib 0.043 | [5] 0.08 | [6] -0.029 | duvelisib 0.084 | gandotinib 0.015 | tozasertib 0.06 | [7] -0.028 | doramapimod 0.037 | ispinesib -0.006

Two entries picked at random from the list so far, as already listed:
VAPA isoform 2 (UniProt Q9P0L0)
inactive: [1] 0.006 | filanesib -0.019 | zotarolimus -0.036 | idasanutlin -0.019 | alisertib -0.034 | [2] 0 | gefitinib 0.046 | [3] 0.021 | lapatinib 0.006 | pictilisib -0.043 | [4] 0.027 | crizotinib 0.037 | [5] -0.062 | [6] -0.014 | duvelisib -0.012 | gandotinib -0.03 | tozasertib 0.01 | [7] -0.024 | doramapimod -0.021 | ispinesib 0.046

UBQLN1 (UniProt Q9UMX0)
inactive: [1] -0.034 | filanesib -0.01 | zotarolimus -0.035 | idasanutlin 0.014 | alisertib -0.067 | [2] -0.046 | gefitinib 0.005 | [3] 0.081 | lapatinib 0.03 | pictilisib -0.013 | [4] -0.062 | crizotinib 0.043 | [5] 0.08 | [6] -0.029 | duvelisib 0.084 | gandotinib 0.015 | tozasertib 0.06 | [7] -0.028 | doramapimod 0.037 | ispinesib -0.006

Additional records follow.

USP10 isoform 2 (UniProt Q14694)
inactive: [1] -0.024 | filanesib 0.086 | zotarolimus 0.02 | idasanutlin 0.045 | alisertib -0.089 | [2] 0.019 | gefitinib -0.006 | [3] -0.008 | lapatinib 0.002 | pictilisib -0.026 | [4] -0.041 | crizotinib 0.01 | [5] -0.119 | [6] 0.055 | duvelisib -0.009 | gandotinib 0.007 | tozasertib -0.015 | [7] 0.042 | doramapimod -0.014 | ispinesib -0.027

UTP15 (UniProt Q8TED0)
inactive: [1] -0.078 | filanesib 0.438 | zotarolimus 0.003 | idasanutlin 0.167 | alisertib -0.04 | [2] -0.003 | gefitinib -0.056 | [3] -0.103 | lapatinib 0.139 | pictilisib -0.115 | [4] -0.079 | crizotinib 0.065 | [5] -0.49 | [6] 0.416 | duvelisib -0.15 | gandotinib 0.236 | tozasertib -0.024 | [7] -0.028 | doramapimod 0.201 | ispinesib -0.148

UQCRB (UniProt P14927)
inactive: [1] -0.016 | filanesib 0.007 | zotarolimus -0.02 | idasanutlin 0 | alisertib -0.018 | [2] 0.005 | gefitinib -0.003 | [3] 0.031 | lapatinib -0.012 | pictilisib -0.003 | [4] 0.007 | crizotinib 0.097 | [5] 0.051 | [6] -0.057 | duvelisib 0.012 | gandotinib -0.02 | tozasertib 0.009 | [7] -0.065 | doramapimod -0.041 | ispinesib 0.044

VCP (UniProt P55072)
inactive: [1] -0.022 | filanesib -0.022 | zotarolimus -0.018 | idasanutlin -0.001 | alisertib -0.067 | [2] -0.001 | gefitinib -0.012 | [3] 0.042 | lapatinib -0.01 | pictilisib 0.008 | [4] -0.005 | crizotinib 0.041 | [5] 0.002 | [6] -0.026 | duvelisib 0.011 | gandotinib 0.022 | tozasertib -0.013 | [7] -0.017 | doramapimod 0.003 | ispinesib 0.033

USE1 (UniProt Q9NZ43)
inactive: [1] -0.028 | filanesib 0.002 | zotarolimus -0.068 | idasanutlin -0.002 | alisertib -0.124 | [2] 0.015 | gefitinib 0.009 | [3] -0.087 | lapatinib 0.041 | pictilisib -0.008 | [4] 0 | crizotinib 0.04 | [5] -0.01 | [6] 0.072 | duvelisib -0.046 | gandotinib -0.047 | tozasertib -0.03 | [7] -0.017 | doramapimod 0.02 | ispinesib -0.06

VCL (UniProt P18206)
inactive: [1] 0.032 | filanesib -0.046 | zotarolimus -0.005 | idasanutlin -0.014 | alisertib -0.078 | [2] -0.012 | gefitinib -0.005 | [3] 0.006 | lapatinib -0.012 | pictilisib -0.008 | [4] -0.033 | crizotinib 0.022 | [5] 0.004 | [6] -0.059 | duvelisib 0 | gandotinib -0.019 | tozasertib -0.022 | [7] -0.023 | doramapimod -0.02 | ispinesib 0.073

VBP1 (UniProt P61758)
inactive: [1] -0.087 | filanesib -0.02 | zotarolimus -0.041 | idasanutlin 0.01 | alisertib 0.001 | [2] 0.005 | gefitinib 0.001 | [3] 0.036 | lapatinib -0.005 | pictilisib 0.005 | [4] 0.016 | crizotinib 0.066 | [5] -0.004 | [6] -0.077 | duvelisib 0.006 | gandotinib 0.01 | tozasertib -0.031 | [7] -0.003 | doramapimod -0.012 | ispinesib -0.014

VAPB (UniProt O95292)
inactive: [1] -0.02 | filanesib -0.027 | zotarolimus 0.034 | idasanutlin -0.016 | alisertib -0.032 | [2] 0.06 | gefitinib 0.016 | [3] 0.006 | lapatinib -0.033 | pictilisib -0.063 | [4] -0.018 | crizotinib 0.069 | [5] 0.036 | [6] -0.109 | duvelisib 0.023 | gandotinib -0.021 | tozasertib -0.006 | [7] -0.03 | doramapimod 0.01 | ispinesib 0.018

VASP (UniProt P50552)
inactive: [1] 0.009 | filanesib 0.04 | zotarolimus 0.09 | idasanutlin -0.018 | alisertib 0.011 | [2] 0.118 | gefitinib 0.075 | [3] -0.067 | lapatinib -0.065 | pictilisib 0.024 | [4] 0.011 | crizotinib -0.158 | [5] -0.011 | [6] 0.132 | duvelisib -0.071 | gandotinib -0.097 | tozasertib 0.027 | [7] 0.166 | doramapimod -0.012 | ispinesib -0.125

UQCRH (UniProt P07919)
inactive: [1] -0.096 | filanesib 0.023 | zotarolimus -0.104 | idasanutlin 0.018 | alisertib 0.098 | [2] 0.034 | gefitinib -0.02 | [3] -0.016 | lapatinib -0.167 | pictilisib -0.052 | [4] -0.035 | crizotinib 0.025 | [5] 0.05 | [6] 0 | duvelisib 0.109 | gandotinib -0.167 | tozasertib 0.012 | [7] -0.057 | doramapimod -0.077 | ispinesib 0.005

UBXN7 (UniProt O94888)
inactive: [1] 0 | filanesib -0.021 | zotarolimus 0.051 | idasanutlin -0.083 | alisertib -0.021 | [2] 0.001 | gefitinib 0.002 | [3] 0.024 | lapatinib 0.019 | pictilisib -0.014 | [4] -0.02 | crizotinib 0.004 | [5] 0.049 | [6] -0.038 | duvelisib 0.092 | gandotinib -0.06 | tozasertib 0.002 | [7] 0.023 | doramapimod -0.011 | ispinesib 0.044

VAT1 (UniProt Q99536)
inactive: [1] 0.031 | filanesib -0.037 | zotarolimus 0.023 | idasanutlin -0.003 | alisertib -0.037 | [2] 0.016 | gefitinib 0.019 | [3] 0.078 | lapatinib 0.046 | pictilisib -0.064 | [4] 0.023 | crizotinib 0.05 | [5] 0.019 | [6] -0.067 | duvelisib 0.002 | gandotinib -0.009 | tozasertib -0.013 | [7] 0.008 | doramapimod -0.062 | ispinesib 0.15

— the supplement of paper PMC10849652
